Results from the supplement of paper PMC12282887.
These are raw signals, not scaled to a control.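 The top concentration was set near the MIC for antimicrobials, at 500 µM for most other compounds, and up to 1 mM for known inducer-like compounds. Deletion strains started from a tenfold smaller inoculum, and wells growing below 10% of the overall median were treated as non-growing.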

System: Escherichia coli BW25113
Assay: growth (OD600 area under curve, 8 h) (OD600 x h); higher = more growth
Description: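 E. coli BW25113 reporter strains (wild type, ΔmarA, ΔsoxS, Δrob, each carrying one of 8 lux reporter plasmids) were grown in 40 µl LB in 384-well plates at 37°C, 800 rpm, with each compound at 4 two-fold concentrations, in biological duplicates. Growth is the baseline-corrected OD600 area under the curve over 8 h (0-8 h WT, 1-9 h deletion strains).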

NCCc1c[nH]c2ccc(O)cc12 [Serotonine]
growth
Settings	reporter plasmid: EVC	reporter plasmid: acrABp	reporter plasmid: marRABp	reporter plasmid: micFp	reporter plasmid: ompFp	reporter plasmid: robp	reporter plasmid: soxSp	reporter plasmid: tolCp
13.3 µg/ml, genetic background: wild type	3.325	3.08	3.39	3.11	3.33	3.47	3.05	3.013
13.3 µg/ml, genetic background: ΔmarA	3.03	4.34	3.871	3.42	3.75	4.25	2.86	2.95
13.3 µg/ml, genetic background: Δrob	3.03	2.95	3.42	3.03	2.95	2.89	2.76	2.82
13.3 µg/ml, genetic background: ΔsoxS	3.41	3.53	3.47	3.07	3.22	3.35	3.16	3.38
26.6 µg/ml, genetic background: wild type	3.22	3.13	3.41	3.01	3.31	3.44	2.88	3
26.6 µg/ml, genetic background: ΔmarA	2.814	4.21	3.67	3.28	3.63	4.05	2.64	2.81
26.6 µg/ml, genetic background: Δrob	2.9645	3.04	3.36	2.72	2.97	2.8	2.47	2.75
26.6 µg/ml, genetic background: ΔsoxS	3.28	3.27	3.5	2.98	3.16	3.39	3.23	3.31
53.2 µg/ml, genetic background: wild type	3.25	3.14	3.4	3.19	3.36	3.53	3.09	3.26
53.2 µg/ml, genetic background: ΔmarA	2.99	4.02	3.78	3.48	3.7	4.13	2.95	2.98
53.2 µg/ml, genetic background: Δrob	3	2.94	3.41	3.12	2.87	2.66	2.73	3.09
53.2 µg/ml, genetic background: ΔsoxS	3.33	3.41	3.48	3	3.2	3.26	3.22	3.43
106.3 µg/ml, genetic background: wild type	3.24	2.99	3.388	3.17	3.39	3.02	2.88	3.226
106.3 µg/ml, genetic background: ΔmarA	3.03	4.05	3.48	3.29	3.74	4.01	2.94	2.97
106.3 µg/ml, genetic background: Δrob	3.1	2.95	3.5	2.93	2.53	2.72	2.47	3.11
106.3 µg/ml, genetic background: ΔsoxS	3.3	3.41	3.19	3.01	3.06	3.24	3.18	3.33

NC[C@H]1O[C@H](O[C@H]2[C@H](O)[C@@H](O[C@H]3O[C@H](CO)[C@@H](O)[C@H](N)[C@H]3O)[C@H](N)C[C@@H]2N)[C@H](N)C[C@@H]1O [Tobramycin]
growth
Settings	reporter plasmid: EVC	reporter plasmid: acrABp	reporter plasmid: marRABp	reporter plasmid: micFp	reporter plasmid: ompFp	reporter plasmid: robp	reporter plasmid: soxSp	reporter plasmid: tolCp
0.12 µg/ml, genetic background: wild type	2.91	2.71	2.83	2.68	2.92	2.82	2.64	2.66
0.12 µg/ml, genetic background: ΔmarA	2.91	4.22	3.32	3.18	3.32	3.58	2.76	2.87
0.12 µg/ml, genetic background: Δrob	2.89	3.02	3.07	2.67	2.61	2.85	2.66	2.63
0.12 µg/ml, genetic background: ΔsoxS	3.44	3.28	3.002	2.9	2.74	3.19	2.97	3.12
0.23 µg/ml, genetic background: wild type	2.65	2.861	2.99	2.71	3.12	2.921	2.56	2.72
0.23 µg/ml, genetic background: ΔmarA	2.85	3.94	3.38	3.17	3.27	3.45	2.78	2.84
0.23 µg/ml, genetic background: Δrob	2.49	2.96	3.1	2.76	2.69	2.76	2.52	2.68
0.23 µg/ml, genetic background: ΔsoxS	2.89	3.1	2.96	2.42	2.61	3.22	2.61	2.77
0.47 µg/ml, genetic background: wild type	2.73	2.27	2.43	2.453	2.69	2.81	2.32	2.45
0.47 µg/ml, genetic background: ΔmarA	2.8	3.88	3.14	3.05	3.28	3.55	2.69	2.73
0.47 µg/ml, genetic background: Δrob	2.79	2.51	2.92	2.74	2.45	2.44	2.25	2.56
0.47 µg/ml, genetic background: ΔsoxS	2.87	2.89	2.62	2.82	2.78	3.11	2.71	2.91
0.94 µg/ml, genetic background: wild type	0.771	6.47e-05	0.155	0.104	-0.0226	0.109	0.176	0.829
0.94 µg/ml, genetic background: ΔmarA	0.879	-0.0977	-0.00569	1.25	-0.0403	1.21	-0.0388	0.81
0.94 µg/ml, genetic background: Δrob	1.36	-0.132	0.0562	0.442	-0.0635	0.0244	0.205	1.32
0.94 µg/ml, genetic background: ΔsoxS	1.17	-0.0995	-0.0155	0.00513	-0.0469	0.0499	-0.00804	1.29

COc1cc(Cc2cnc(N)nc2N)cc(OC)c1OC [Trimethoprim]
growth
Settings	reporter plasmid: EVC	reporter plasmid: acrABp	reporter plasmid: marRABp	reporter plasmid: micFp	reporter plasmid: ompFp	reporter plasmid: robp	reporter plasmid: soxSp	reporter plasmid: tolCp
0.073 µg/ml, genetic background: wild type	3.225	3.29	3.46	2.78	3.24	3.4	2.76	2.71
0.073 µg/ml, genetic background: ΔmarA	3.01	4.68	3.83	3.38	4	3.76	2.649	3.07
0.073 µg/ml, genetic background: Δrob	2.97	3.643	3.55	2.9	2.86	3.05	2.8	2.67
0.073 µg/ml, genetic background: ΔsoxS	3.48	3.67	3.63	2.9663	3.11	3.77	3.33	3.21
0.15 µg/ml, genetic background: wild type	3.12	3.16	3.24	2.765	3.01	3.23	2.84	2.68
0.15 µg/ml, genetic background: ΔmarA	2.91	4.4	3.566	3.36	3.76	3.75	2.93	2.82
0.15 µg/ml, genetic background: Δrob	3.05	3.399	3.25	2.79	2.88	2.9	2.62	2.58
0.15 µg/ml, genetic background: ΔsoxS	3.557	3.79	3.36	3.09	3.06	3.455	3.19	3.37
0.29 µg/ml, genetic background: wild type	3.2	3.25	3.55	2.71	3.09	3.58	2.75	2.92
0.29 µg/ml, genetic background: ΔmarA	2.8	4.66	3.85	3.2	3.93	3.884	2.76	2.779
0.29 µg/ml, genetic background: Δrob	3.18	3.49	3.5	2.84	2.67	2.97	2.63	2.796
0.29 µg/ml, genetic background: ΔsoxS	3.39	3.81	3.71	3.01	3.23	3.86	3.56	3.23
0.58 µg/ml, genetic background: wild type	3.09	2.61	3.14	2.64	2.62	3.18	2.73	2.77
0.58 µg/ml, genetic background: ΔmarA	2.63	3.82	2.87	3.09	3.09	3.49	2.4	2.62
0.58 µg/ml, genetic background: Δrob	3.26	2.55	2.91	2.657	2.18	2.287	2.64	3.09
0.58 µg/ml, genetic background: ΔsoxS	3.47	2.98	3.05	2.56	2.42	2.68	3.04	3.36

COc1cc(C=O)ccc1O [Vanillin]
growth
Settings	reporter plasmid: EVC	reporter plasmid: acrABp	reporter plasmid: marRABp	reporter plasmid: micFp	reporter plasmid: ompFp	reporter plasmid: robp	reporter plasmid: soxSp	reporter plasmid: tolCp
19 µg/ml, genetic background: wild type	3.173	2.95	3.06	2.65	2.97	3.08	2.8	2.73
19 µg/ml, genetic background: ΔmarA	3.1	4.23	3.86	3.38	3.56	4.122	2.58	2.918
19 µg/ml, genetic background: Δrob	2.97	2.713	2.91	2.76	2.7	2.81	2.46	2.47
19 µg/ml, genetic background: ΔsoxS	3.61	3.4	3.27	2.89	3.21	3.35	3.12	3.15
38 µg/ml, genetic background: wild type	2.9999	2.869	2.87	2.53	2.94	3.04	2.65	2.59
38 µg/ml, genetic background: ΔmarA	2.88	4.26	3.818	3.18	3.45	4.1	2.56	2.95
38 µg/ml, genetic background: Δrob	2.76	2.81	2.9	2.51	2.8	2.74	2.23	2.34
38 µg/ml, genetic background: ΔsoxS	3.41	3.34	3.32	2.93	3.35	3.21	2.65	3.12
76.1 µg/ml, genetic background: wild type	3.219	2.59	2.91	2.57	2.91	3.2	2.706	2.75
76.1 µg/ml, genetic background: ΔmarA	2.79	3.76	3.3	3.37	3.35	3.75	2.66	2.9
76.1 µg/ml, genetic background: Δrob	2.94	2.92	2.74	2.77	2.71	2.564	2.38	2.56
76.1 µg/ml, genetic background: ΔsoxS	3.36	3.39	3.08	3.01	3.02	3.28	2.8	3.23
152.1 µg/ml, genetic background: wild type	2.97	2.37	2.86	2.55	2.87	2.91	2.51	2.67
152.1 µg/ml, genetic background: ΔmarA	2.66	3.62	2.94	3.2	3.26	3.607	2.34	2.59
152.1 µg/ml, genetic background: Δrob	2.91	2.69	2.66	2.48	2.61	2.377	2.18	2.42
152.1 µg/ml, genetic background: ΔsoxS	3.23	2.894	2.83	2.69	2.7	2.858	2.7	3.15

COc1ccc(CCN(C)CCCC(C#N)(c2ccc(OC)c(OC)c2)C(C)C)cc1OC (stereo not given) [Verapamil]
growth
Settings	reporter plasmid: EVC	reporter plasmid: acrABp	reporter plasmid: marRABp	reporter plasmid: micFp	reporter plasmid: ompFp	reporter plasmid: robp	reporter plasmid: soxSp	reporter plasmid: tolCp
28.4 µg/ml, genetic background: wild type	2.81	2.52	2.51	2.526	2.59	2.65	2.51	2.44
28.4 µg/ml, genetic background: ΔmarA	2.76	2.95	2.87	3.14	2.9684	3.06	2.82	2.84
28.4 µg/ml, genetic background: Δrob	2.48	2.36	2.52	2.55	2.31	2.429	2.33	2.222
28.4 µg/ml, genetic background: ΔsoxS	2.98	2.72	2.74	2.82	2.7	2.68	2.57	2.59
56.8 µg/ml, genetic background: wild type	2.93	2.41	2.36	2.51	2.65	2.61	2.5	2.424
56.8 µg/ml, genetic background: ΔmarA	2.8	2.86	2.66	3.19	2.91	3.14	2.62	2.83
56.8 µg/ml, genetic background: Δrob	2.68	2.43	2.32	2.66	2.25	2.27	2.462	2.25
56.8 µg/ml, genetic background: ΔsoxS	3.07	3.12	2.52	2.84	2.84	2.72	2.49	2.81
113.7 µg/ml, genetic background: wild type	3.174	2.36	2.366	2.66	2.52	2.41	2.63	2.74
113.7 µg/ml, genetic background: ΔmarA	3.1	2.62	2.46	3.31	2.83	2.79	2.78	2.98
113.7 µg/ml, genetic background: Δrob	2.9	2.45	2.14	2.88	2.12	2.08	2.74	2.58
113.7 µg/ml, genetic background: ΔsoxS	2.98	3.03	2.43	3.13	2.9	2.62	2.59	2.98
227.3 µg/ml, genetic background: wild type	3.166	2.16	2.02	2.81	2.45	2.14	2.73	2.91
227.3 µg/ml, genetic background: ΔmarA	3.61	2.5	2.21	3.61	2.27	2.45	3.4	3.339
227.3 µg/ml, genetic background: Δrob	3.38	2.31	2.04	3.29	1.84	1.72	3	3.25
227.3 µg/ml, genetic background: ΔsoxS	3.527	2.92	2.25	3.28	2.66	2.12	2.76	3.42
